Assay results published in patent US20100179172A1, “N-PHENYL-METHANAMINE DERIVATIVE AND PESTICIDE CONTAINING IT” (priority 2007, published 2010).
Some entries share one result that the patent states for a list of compounds. At least one compound was matched to its structure with a doubt left.

How the values were obtained:
[1] = system: Two-Spotted Spider Mite (Tetranychus urticae); details: 800 ppm, adults dipped together with kidney bean leaf, second or third day after the treatment, 25° C.
[2] = system: Green Peach Aphid (Myzus persicae); details: 800 ppm, Japanese radish leaf dipped about 10 seconds, first instar nymphs, 5 days after the treatment, 25° C.
[3] = system: Common Cutworm (Spodoptera litura); details: 800 ppm, cabbage leaf disk dipped about 10 seconds, second-third instar larvae, fifth day after the release, 25° C.

Row | Compound | Mortality of adults [1] | Mortality [2] | Mortality [3]
1 | COc1ccccc1CN(Cc1ccccn1)c1cc(C(F)(F)F)c(Br)c(C(F)(F)F)c1 [compound 52] | at least 90% | – | –
2 | FC(F)(F)c1cc(N(Cc2cccnc2)Cc2ccccn2)cc(C(F)(F)F)c1Cl [compound 30] | at least 90% | at least 90% | at least 90%
3 | COC(CN(Cc1ccccn1)c1cc(C(F)(F)F)c(Br)c(C(F)(F)F)c1)OC [compound 63] | at least 90% | at least 90% | –
4 | FC(F)(F)c1ccncc1CN(Cc1ccccn1)c1cc(C(F)(F)F)c(Br)c(C(F)(F)F)c1 [compound 46] | – | – | at least 90%
5 | Cc1cc(N(Cc2cccnc2)Cc2ccccn2)cc(C(F)(F)F)c1[N+](=O)[O-] [compound 21] | at least 90% | at least 90% | at least 90%
6 | FC(F)(F)c1cc(N(Cc2ccccn2)Cc2cccnc2Cl)cc(C(F)(F)F)c1Br [compound 44] | – | – | at least 90%
7 | O=[N+]([O-])c1c(Cl)cc(N(Cc2cccnc2)Cc2ccccn2)cc1C(F)(F)F [compound 18] | at least 90% | at least 90% | at least 90%
8 | CC(c1ccccn1)N(Cc1cccnc1)c1cc(C(F)(F)F)c(Br)c(C(F)(F)F)c1 (racemic) [compound 39] | at least 90% | – | –
9 | FC(F)(F)c1cc(N(Cc2ccccn2)Cc2ccccc2Cl)cc(C(F)(F)F)c1Br [compound 50] | at least 90% | – | at least 90%
10 | CSc1ncccc1CN(Cc1ccccn1)c1cc(C(F)(F)F)c(Br)c(C(F)(F)F)c1 [compound 45] | – | – | at least 90%
11 | CC(c1cnccn1)N(Cc1ccccn1)c1cc(C(F)(F)F)c(Br)c(C(F)(F)F)c1 (centres unmarked) [compound 48] | at least 90% | at least 90% | at least 90%
12 | COc1cc(N(Cc2cccnc2)Cc2ccccn2)cc(C(F)(F)F)c1[N+](=O)[O-] [compound 24] | at least 90% | at least 90% | at least 90%
13 | COc1ncccc1CN(Cc1ccccn1)c1cc(C(F)(F)F)c(Br)c(C(F)(F)F)c1 [compound 43] | – | – | at least 90%
14 | N#Cc1c(C(F)(F)F)cc(N(Cc2cccnc2)Cc2ccccn2)cc1C(F)(F)F [compound 68] | at least 90% | at least 90% | at least 90%
15 | COc1cc(N(Cc2ccccn2)Cc2cccnc2C)cc(C(F)(F)F)c1[N+](=O)[O-] [compound 25] | – | – | at least 90%
